This assay has as its target EPH receptor B1 (EPHB1) protein (human (endogenous in the paper's human prostate cell lines)) (UniProt P54762). The experiment in a line: co-IP; RIPA lysate of cultured cells with phosphatase and protease inhibitors; anti-EPHB1 or anti-GSK3B antibody loaded on Protein A/G magnetic beads; beads washed five times; SDS-PAGE and western blot. (Immunoblotting shows a protein as a band on a membrane.)

Protein sequences, listed by entry. Tags and fused reporters are not part of them. Residues count along the entry.
UniProt P54762, residues 18-984: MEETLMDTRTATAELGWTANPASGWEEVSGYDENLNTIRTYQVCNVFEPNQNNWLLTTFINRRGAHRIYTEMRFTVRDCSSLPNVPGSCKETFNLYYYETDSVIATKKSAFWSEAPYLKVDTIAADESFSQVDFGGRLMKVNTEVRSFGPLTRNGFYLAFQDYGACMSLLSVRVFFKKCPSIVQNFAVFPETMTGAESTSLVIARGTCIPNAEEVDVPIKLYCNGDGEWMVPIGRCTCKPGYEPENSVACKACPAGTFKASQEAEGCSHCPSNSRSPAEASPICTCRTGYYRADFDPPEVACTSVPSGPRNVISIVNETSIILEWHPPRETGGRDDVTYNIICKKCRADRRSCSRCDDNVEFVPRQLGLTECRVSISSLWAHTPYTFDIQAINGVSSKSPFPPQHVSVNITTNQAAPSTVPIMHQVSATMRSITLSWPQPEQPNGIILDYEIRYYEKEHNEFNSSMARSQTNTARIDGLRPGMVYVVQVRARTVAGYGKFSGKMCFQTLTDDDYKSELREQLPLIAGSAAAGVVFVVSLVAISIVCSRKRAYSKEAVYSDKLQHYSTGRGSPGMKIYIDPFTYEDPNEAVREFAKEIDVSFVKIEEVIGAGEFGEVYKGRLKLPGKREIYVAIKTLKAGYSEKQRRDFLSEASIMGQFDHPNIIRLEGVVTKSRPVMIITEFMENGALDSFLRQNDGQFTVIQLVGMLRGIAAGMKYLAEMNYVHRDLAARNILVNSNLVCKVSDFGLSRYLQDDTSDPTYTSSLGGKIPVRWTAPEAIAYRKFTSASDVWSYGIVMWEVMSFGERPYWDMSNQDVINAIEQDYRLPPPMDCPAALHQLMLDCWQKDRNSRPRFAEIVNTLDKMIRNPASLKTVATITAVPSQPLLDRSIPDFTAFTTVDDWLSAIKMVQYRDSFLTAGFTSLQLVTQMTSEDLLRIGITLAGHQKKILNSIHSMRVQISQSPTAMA
UniProt P49841: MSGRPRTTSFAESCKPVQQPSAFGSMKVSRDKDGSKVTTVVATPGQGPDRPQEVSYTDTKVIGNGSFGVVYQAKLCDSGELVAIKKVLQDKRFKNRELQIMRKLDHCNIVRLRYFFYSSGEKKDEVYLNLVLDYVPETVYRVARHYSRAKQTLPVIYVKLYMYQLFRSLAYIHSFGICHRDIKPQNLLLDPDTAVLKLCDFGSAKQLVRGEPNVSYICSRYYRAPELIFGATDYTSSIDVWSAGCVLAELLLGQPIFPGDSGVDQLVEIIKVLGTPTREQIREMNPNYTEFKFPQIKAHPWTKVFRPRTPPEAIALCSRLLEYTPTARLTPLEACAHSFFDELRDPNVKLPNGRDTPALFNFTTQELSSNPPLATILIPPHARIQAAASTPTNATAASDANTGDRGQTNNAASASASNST

No constants are given. Whether binding was seen depends on the method and setting. Binding seen in cells or lysates may run through a third protein. Some binding calls cover weakened binding; strength is not graded here.

Consider “Glycogen Synthase Kinase 3 Beta (GSK3B) protein (from UniProt P49841 1-420) (enzyme)”, for which the binding entry was “binds”.
